No constants are given. Whether binding was seen depends on the method and setting. Some results given as binding are weak or reduced against the parent protein; the word gives no strength.
B1: c3.10 (antibody, IgG2, V domains shown)
VH: QVQLQESGPGLVKPSETLSLTCTVSGGSISSYYWSWIRQPPGKGLEWIGYIYYTWTTNYNPSLKSRVTISVDTSKNQFSLRLSSVTAADTALYYCARDQGQWLLPDAFDIWGQGTMVTVSS
VL: DIQMTQSPSSLSASVGDRVTITCRASQSISNYLNWYQQKPGKAPKLLIYGASSLQSGVPSRFSGSGSGTDFTLTISSLQPEDFATYYCRQSYSTPPECSFGQGTKLEIK
B2: c3.22 (antibody, IgG2, V domains shown)
VH: QVQLQESGPGLVKPSQTLSLTCTVSGGSISSGGYYWTWIRQHPGKGLEWIGFIYYSGSTYYNPSLKSRVTISVDTSKNQFSLKLSSVTAADTAVYYCAREGDGFDYWGQGTLVTVSS
VL: DIQMTQSPSSLSASVGDRVTITCRASQGIRNDLGWYQQKPGKAPKRLIYAASSLQSGVPSRFSGSGSGTEFTLTISSLQPEDFATYYCLQHNSYPLTFGGGTKVEIK
B3: c3.27 (antibody, IgG2, V domains shown)
VH: QVQLQESGPGLVKPSETLSLTCTVSGGSISSYYWSWIRQPPGKGLEWIGYIYYTWTSNYNPSLKSRVTISVDTSKNQFSLRLSSVTAADTAVYYCARDQGQWLLPDAFDIWGQGTMVTVSS
VL: DIQMTQSPSSLSASVGDRVTITCRASQGIRNDLGWYQQKPGKAPKRLIYAASSLQSGVPSRFSGSGSGTEFTLTISSLQPEDFATYYCLQHNSYPWTFGQGTKVEIK
B4: c3.45 (antibody, IgG2, V domains shown)
VH: QVQLVQSGAEVKKPGASVKVSCKASGYTFFSYGFSWVRQAPGQGLEWLGWISAYNGNTNYAQKLQGRVTMTTDTSTSTAYMELRSLRSDDTAVYYCARETKVRGVHYYGMDVWGQGTTVTVSS
VL: DIVMTQSPDSLAVSLGERATIICKSSQSILYSSNNKNYLGWYQQKPGQPPKLLIYWASTRESGVPARFSGSGSGTDFTLTINSLQAEDVAVYYCQQYYSTPRSFGQGTMVEIK
B5: c6.9 (antibody, IgG2, V domains shown)
VH: QVQLEQSGPGLVKPSETLSLTCTVSGGSISSGTYHWSWIRQHPGRGLEWIGYIYYSGSTYHNPSLKSRITISVDTSKNQFSLKLSSVTAADTAVYYCARGGDGYRYWGQGTLVTVSS
VL: EIVMTQSPATLSVSPGERATLSCRASQSISNNFAWYQQKPGQAPRLLIFGASTRATGIPARFSGSGSGTEFTLTISSLQSEDFAVYYCQQYNNWPRTFGQGTKVEIK
B6: c6.2 (antibody, IgG2, V domains shown)
VH: QVQLQESGPGLVKPSETLSLTCTVSGGSISTYYWSWIRQPPGKGLEWIGYIYYTGNTYYNPSLKSRVTVSVDTSKNQFSLKLNSVTAADTAVYYCARDPGQWLVPDAFDIWGQGTMVSVSS
VL: DIVMTQSPLSLPVIPGEPASISCRSSQSLLQSNGNNYLDWYLQKPGQSPQLLIYLGSNRASGVPDRFSGSGSGTDFTLKISRVEADDVGIYYCMQALQIPLTFGGGTKVEIK
B7: c6.12 (antibody, IgG2, V domains shown)
VH: QVQLEQSGPGLVKPSETLSLTCTVSGGSISSGTYHWSWIRQHPGRGLEWIGYIYYSGSTYHNPSLKSRITISVDTSKNQFSLKLSSVTAADTAVYYCARGGDGYRYWGQGTLVTVSS
VL: EIVMTQSPATLSVSPGERATLSCRASQSISNNFAWYQQKPGQAPRLLIFGASTRATGIPARFSGSGSGTEFTLTISSLQSEDFAVYYCQQYNNWPRTFGQGTKVEIK

The chains behind the UniProt entries cited, without tags or fusion partners. Residues count along the entry.
UniProt P43121, residues 24-559: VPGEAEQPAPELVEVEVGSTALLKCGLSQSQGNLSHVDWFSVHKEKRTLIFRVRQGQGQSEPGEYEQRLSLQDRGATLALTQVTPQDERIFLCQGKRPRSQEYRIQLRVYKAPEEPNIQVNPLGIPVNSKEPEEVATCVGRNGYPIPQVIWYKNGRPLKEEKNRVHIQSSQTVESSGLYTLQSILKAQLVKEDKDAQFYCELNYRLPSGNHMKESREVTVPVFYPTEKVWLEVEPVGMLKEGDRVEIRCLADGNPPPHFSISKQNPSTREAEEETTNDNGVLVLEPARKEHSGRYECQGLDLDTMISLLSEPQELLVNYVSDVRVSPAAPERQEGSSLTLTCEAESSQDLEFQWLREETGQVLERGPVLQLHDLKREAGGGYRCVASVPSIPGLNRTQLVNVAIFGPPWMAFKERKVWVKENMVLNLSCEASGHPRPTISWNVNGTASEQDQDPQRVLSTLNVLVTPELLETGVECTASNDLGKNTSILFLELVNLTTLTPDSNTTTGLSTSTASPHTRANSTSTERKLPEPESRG

The binders below were run against MUC18 antigen coated on ELISA plates (hybridoma screening) (human) (UniProt P43121) (assay: antigen-specific ELISA of hybridoma supernatants on antigen coated plates).

binding, binds:
B1, B2, B3, B4, B5, B6, B7

Source: patent US20030147809A1
